{"sequences": {"note": "By UniProt entry, the sequences of proteins in these tests, tags left out. Where a name states a change or a piece, a line headed by the entry shows the natural chain unless it says otherwise.", "UniProt Q8N6C8": "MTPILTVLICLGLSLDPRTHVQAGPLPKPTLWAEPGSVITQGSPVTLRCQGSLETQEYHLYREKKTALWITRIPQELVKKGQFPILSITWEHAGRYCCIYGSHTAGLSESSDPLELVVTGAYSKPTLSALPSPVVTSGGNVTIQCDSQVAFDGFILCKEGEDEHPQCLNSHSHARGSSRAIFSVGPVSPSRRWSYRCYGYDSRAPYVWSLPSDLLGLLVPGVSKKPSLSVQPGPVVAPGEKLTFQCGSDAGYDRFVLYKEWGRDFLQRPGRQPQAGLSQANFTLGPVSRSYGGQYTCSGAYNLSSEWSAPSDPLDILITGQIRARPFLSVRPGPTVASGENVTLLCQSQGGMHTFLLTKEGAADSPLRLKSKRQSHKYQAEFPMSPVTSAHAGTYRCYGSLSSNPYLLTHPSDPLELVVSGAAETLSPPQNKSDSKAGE"}, "source": "patent EP4491230A1", "about": "(iOmx Therapeutics AG, dated 2025)", "binders": {"B1": {"name": "A-045 (antibody, V domains shown)", "VH": "QVQLVQSGAEVKKPGSSVKVSCKASGGTFQSQAFAWVRQAPGQGLEWMGSIIPGFSTANYAQKFQGRVTITADESTSTAYMELSSLRSEDTAVYYCAKDLGTYSSGWPYYYGMDVWGQGTTVTVSS", "VL": "SYELTQPPSVSVSPGQTASITCSGDKLGDKYASWYQQKPGQSPVLVIYQDSKRPSGIPERFSGSNSGNTATLTISGTQAEDEADYYCQLTHLTIYVFGGGTKLTVL"}}, "target": "LILRA3 expressed on transiently transfected Expi293 cells (human) (UniProt Q8N6C8)", "assay": "flow cytometry, transfected Expi293 cells", "note": "These are yes or no findings as the source states them, for the method shown. Some entries that bind do so weakly or less than the wild type."}
{"binder": "B1", "values": [{"measurement": "binding", "value": "binds"}]}
